Some entries share one result that the patent states for a list of compounds. Residues, ends and D or L forms follow the SMILES beside them.
Tested on: Fusarium culmorum (IMI 180420)
Assay: Antifungal growth inhibition microplate assay (photospectrometry)
Format: cell-based
Details: ½ PDB, the source numbers peptides by N-terminal amino acid
Procedure: The following fungal strains were used: Alternaria brassicicola (MUCL 20297), Ascophyta pisi (MUCL 30164), Botrytis cinerea (MUCL 30158), Fusarium culmorum (IMI 180420) and Verticillium dahliae (MUCL 19210).
Fungi were grown on six cereal agar plates at room temperature and under white fluorescent light except for F culmorum and V dahliae which were grown in the dark. The duration of the spore harvest varied between 10 and 25 days depending on the strain. Spores were collected as follows. Five to ten ml of sterile milli-Q water was poured into each dish and the surface of the agar was rubbed with a sterile spatula to obtain a suspension containing mycelium and spores. This suspension was filtered through a sterile glasswool-plugged funnel and the filtrate containing the spores was collected in a sterile polypropylene centrifuge tube. The A brassicicola spores were suspended in sterile 0.1 Tween 20 (Merk, 822184) due to their hydrophobic nature. The spore suspensions were then washed twice by centrifugation at 2,400×g for 15 minutes and resuspended in a small volume of steril milli-Q water. The spore density was determined in a counting chamber and then adjusted to 4×10^7 spores per ml. Aliquots of the spore suspension were transferred to sterile microtubes and an equal volume of sterile 50% glycerol (Merck, 4091) was added to each tube so that a final spore suspension of 2×10^7 spores per ml in 25% glycerol was obtained. After careful mixing of the stock, the spore suspension was transferred in 100 μl aliquots to sterile microtubes and stored at −80° C.
Antifungal activity was measured by photospectrometry as described by Broekaert et al, (1990, FEMS Microbiol Lett, 69:55-60). Tests were performed by adding 20 μl of test solution and 80 μl of a fungal spore suspension (2×10^4 spores/ml) per well in a sterile flat-bottom 96-well microtiterplate. The spore suspension was prepared by diluting the stock spore suspension ([…] in 25% glycerol) 1:1000 in half-strength potato dextrose broth. A positive growth control consisting of eight wells containing 20 μl of sterile milli-Q water and 80 μl of the fungal spore suspension was included in each test. The microtiterplates were incubated (with the lid on) in an aerated place at room temperature and under conditions of darkness for all test organisms.
After 30 minutes of incubation (when the spores are settled on the well bottom) the optical density was measured in a microplate reader (Bio Rad 3550-UV) at 595 nm. Incubation of the microtiterplates continued until the optical density of the control microculture was between 0.250 and 0.500, which took approximately 72 hours (96 hours for V dahliae). Percentage of growth inhibition (% GI) was estimated as 100 times the ratio of the corrected absorbance of the control microculture minus the corrected absorbance of the test microculture over the corrected absorbance of the control microculture at 595 nm. The corrected absorbance values equal the absorbance at 595 nm of the culture measured after 72 or 96 hours minus the absorbance at 595 nm measured after 30 minutes.
% GI=[(Acontrol−Atest/Acontrol]×100
where Acontrol=(A72/96h−A30min)control
The IC50 value is defined as the concentration that gives a 50% growth inhibition after 72 or 96 hours of incubation. The minimum inhibitory concentration (MIC) corresponds to the minimum concentration that gives 100% growth inhibition after 72 or 96 hours incubation.

SMILES | IC50 (Table 4 / FIG. 6: Rs-AFP2-based 12-mer split peptides) | IC50 (Table 3 / FIG. 6: Rs-AFP2-based 9-mer split peptides)
CC(=O)N[C@@H](CCCCN)C(=O)N[C@@H](C)C(=O)N[C@@H](CCCNC(=N)N)C(=O)N[C@@H](Cc1c[nH]cn1)C(=O)NCC(=O)N[C@@H](CO)C(=O)N[C@@H](CS)C(=O)N[C@@H](CC(N)=O)C(=O)N[C@@H](Cc1ccc(O)cc1)C(=O)N[C@H](C(=O)N[C@@H](Cc1ccccc1)C(=O)N1CCC[C@H]1C(N)=O)C(C)C [Peptide 30] (Ac-KARHGSCNYVFP-NH2) | less than 100 μg/ml | 
CC[C@H](C)[C@H](NC(=O)[C@H](CS)NC(=O)[C@H](CCC(N)=O)NC(C)=O)C(=O)N[C@@H](CCCNC(=N)N)C(=O)N[C@@H](CC(C)C)C(=O)N[C@@H](CCC(=O)O)C(=O)N[C@@H](CCCCN)C(=O)N[C@@H](C)C(=O)N[C@@H](CCCNC(=N)N)C(N)=O [Peptide 24] (Ac-QCIRLEKAR-NH2) |  | less than 100 μg/ml
